From article PMC10886541
Results are given in words; binding and its absence hold for the method and conditions named. Binding seen in cells or lysates may run through a third protein. A yes stands for co-enrichment or nearness to the bait. Other partners may have been found.

By UniProt entry, the sequences of proteins in these tests, tags left out. Where a name states a change or a piece, a line headed by the entry shows the natural chain unless it says otherwise. Residues count along the entry.
UniProt P41245: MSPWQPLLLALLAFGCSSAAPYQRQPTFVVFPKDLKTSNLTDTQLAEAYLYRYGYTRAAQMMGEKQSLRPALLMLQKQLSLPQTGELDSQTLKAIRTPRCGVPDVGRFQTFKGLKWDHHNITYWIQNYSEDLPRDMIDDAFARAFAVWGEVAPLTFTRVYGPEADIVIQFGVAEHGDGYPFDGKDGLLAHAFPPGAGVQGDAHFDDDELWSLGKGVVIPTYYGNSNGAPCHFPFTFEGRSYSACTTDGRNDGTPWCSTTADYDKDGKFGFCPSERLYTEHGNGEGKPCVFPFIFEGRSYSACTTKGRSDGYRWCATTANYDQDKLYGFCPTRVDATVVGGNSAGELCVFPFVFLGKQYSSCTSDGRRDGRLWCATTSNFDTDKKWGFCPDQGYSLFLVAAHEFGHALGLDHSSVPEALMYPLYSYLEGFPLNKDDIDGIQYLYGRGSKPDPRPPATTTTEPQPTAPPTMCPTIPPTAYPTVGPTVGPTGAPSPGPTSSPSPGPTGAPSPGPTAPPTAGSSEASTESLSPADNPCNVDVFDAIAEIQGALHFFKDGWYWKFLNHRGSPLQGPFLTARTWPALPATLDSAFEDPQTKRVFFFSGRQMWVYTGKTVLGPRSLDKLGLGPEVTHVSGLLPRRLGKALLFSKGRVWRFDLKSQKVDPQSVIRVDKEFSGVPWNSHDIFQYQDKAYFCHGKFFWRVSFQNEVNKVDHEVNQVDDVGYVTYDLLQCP
UniProt P11276, residues 33-2477: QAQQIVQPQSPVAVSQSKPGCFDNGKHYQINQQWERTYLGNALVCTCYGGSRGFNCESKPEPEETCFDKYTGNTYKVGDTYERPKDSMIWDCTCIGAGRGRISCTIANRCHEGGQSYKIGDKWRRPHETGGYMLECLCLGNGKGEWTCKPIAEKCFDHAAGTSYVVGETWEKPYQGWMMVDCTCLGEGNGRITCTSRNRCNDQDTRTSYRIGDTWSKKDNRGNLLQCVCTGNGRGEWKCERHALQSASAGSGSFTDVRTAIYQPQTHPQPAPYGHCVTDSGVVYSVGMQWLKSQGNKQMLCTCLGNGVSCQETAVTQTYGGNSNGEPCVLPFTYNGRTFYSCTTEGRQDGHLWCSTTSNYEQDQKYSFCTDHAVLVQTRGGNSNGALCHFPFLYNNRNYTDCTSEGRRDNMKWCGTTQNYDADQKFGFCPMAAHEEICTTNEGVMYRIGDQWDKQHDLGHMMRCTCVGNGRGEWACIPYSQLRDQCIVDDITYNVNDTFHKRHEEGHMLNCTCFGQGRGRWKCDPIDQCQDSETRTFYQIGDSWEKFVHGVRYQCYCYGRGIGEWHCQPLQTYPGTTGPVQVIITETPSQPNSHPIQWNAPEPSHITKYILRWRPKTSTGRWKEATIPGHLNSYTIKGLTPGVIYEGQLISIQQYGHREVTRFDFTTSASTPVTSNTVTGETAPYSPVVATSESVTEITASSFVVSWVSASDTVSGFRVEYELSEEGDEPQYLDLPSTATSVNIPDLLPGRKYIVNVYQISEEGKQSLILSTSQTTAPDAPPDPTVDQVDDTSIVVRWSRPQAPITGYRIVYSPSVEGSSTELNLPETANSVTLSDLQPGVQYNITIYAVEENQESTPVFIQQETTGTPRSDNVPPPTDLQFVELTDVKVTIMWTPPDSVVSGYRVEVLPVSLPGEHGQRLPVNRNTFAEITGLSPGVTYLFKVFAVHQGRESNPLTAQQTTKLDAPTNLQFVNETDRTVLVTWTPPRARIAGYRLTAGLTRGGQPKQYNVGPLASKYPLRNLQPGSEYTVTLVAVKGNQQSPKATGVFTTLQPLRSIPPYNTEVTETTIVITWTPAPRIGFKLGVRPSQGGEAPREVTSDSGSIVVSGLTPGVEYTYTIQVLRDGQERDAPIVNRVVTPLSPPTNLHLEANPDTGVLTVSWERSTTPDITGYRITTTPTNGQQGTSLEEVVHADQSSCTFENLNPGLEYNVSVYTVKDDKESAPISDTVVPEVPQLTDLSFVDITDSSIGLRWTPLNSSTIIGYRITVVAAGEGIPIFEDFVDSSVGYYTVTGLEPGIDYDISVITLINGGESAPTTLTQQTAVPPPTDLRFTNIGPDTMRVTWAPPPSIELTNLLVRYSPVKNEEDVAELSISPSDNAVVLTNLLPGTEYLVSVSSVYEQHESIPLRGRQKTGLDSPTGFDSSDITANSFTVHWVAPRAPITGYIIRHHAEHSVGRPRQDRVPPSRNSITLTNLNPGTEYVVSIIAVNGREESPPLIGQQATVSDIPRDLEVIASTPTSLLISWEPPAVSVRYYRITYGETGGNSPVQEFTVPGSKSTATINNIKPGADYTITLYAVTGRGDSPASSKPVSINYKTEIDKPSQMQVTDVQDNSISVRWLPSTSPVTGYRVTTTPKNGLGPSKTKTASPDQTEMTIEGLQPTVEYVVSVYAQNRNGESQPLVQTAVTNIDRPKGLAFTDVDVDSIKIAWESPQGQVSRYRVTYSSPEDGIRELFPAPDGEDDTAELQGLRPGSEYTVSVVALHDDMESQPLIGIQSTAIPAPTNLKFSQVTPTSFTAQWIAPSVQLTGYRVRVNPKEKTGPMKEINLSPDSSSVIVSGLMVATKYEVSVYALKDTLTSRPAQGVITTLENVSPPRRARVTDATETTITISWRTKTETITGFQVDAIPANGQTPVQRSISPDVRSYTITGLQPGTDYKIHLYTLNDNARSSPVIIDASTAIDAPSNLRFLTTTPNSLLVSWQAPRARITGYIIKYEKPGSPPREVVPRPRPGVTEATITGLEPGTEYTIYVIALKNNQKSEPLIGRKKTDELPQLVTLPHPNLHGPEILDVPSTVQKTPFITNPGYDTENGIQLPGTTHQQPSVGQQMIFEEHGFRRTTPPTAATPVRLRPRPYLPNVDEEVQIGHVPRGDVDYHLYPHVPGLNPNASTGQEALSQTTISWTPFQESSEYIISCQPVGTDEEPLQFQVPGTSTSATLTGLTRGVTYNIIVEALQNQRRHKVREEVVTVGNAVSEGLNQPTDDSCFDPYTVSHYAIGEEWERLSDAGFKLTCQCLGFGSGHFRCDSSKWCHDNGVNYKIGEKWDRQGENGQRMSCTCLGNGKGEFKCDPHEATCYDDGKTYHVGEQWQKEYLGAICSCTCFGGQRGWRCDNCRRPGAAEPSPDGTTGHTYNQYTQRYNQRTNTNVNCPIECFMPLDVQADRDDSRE

Target: matrix metalloprotease (MMP)-9 (mouse (endogenous in J774A.1)) (UniProt P41245)
Assay: affinity purification with mass spectrometry; anti-MMP-9 antibody (ab38898) or mouse IgG1 isotype control on Protein G Dynabeads, incubated overnight at 4 °C with 1.3 mg RIPA lysate of EVs from J774A.1 macrophages infected with S. Typhimurium (MOI 50); washes with 0.05% NP-40, 150 mM NaCl, 50 mM Tris-HCl pH 7.5; on-bead trypsin digest, LC-MS/MS; interactors chosen by MMP-9/IgG log2 ratio > 4

With “fibronectin (from UniProt P11276 33-2477)” the binding was “binds”.
